In article PMC7979926:
Results are given in words; binding and its absence hold for the method and conditions named. In cells and extracts the contact can be indirect. Some binding calls cover weakened binding; strength is not graded here.

The chains behind the UniProt entries cited, without tags or fusion partners.
UniProt O82486: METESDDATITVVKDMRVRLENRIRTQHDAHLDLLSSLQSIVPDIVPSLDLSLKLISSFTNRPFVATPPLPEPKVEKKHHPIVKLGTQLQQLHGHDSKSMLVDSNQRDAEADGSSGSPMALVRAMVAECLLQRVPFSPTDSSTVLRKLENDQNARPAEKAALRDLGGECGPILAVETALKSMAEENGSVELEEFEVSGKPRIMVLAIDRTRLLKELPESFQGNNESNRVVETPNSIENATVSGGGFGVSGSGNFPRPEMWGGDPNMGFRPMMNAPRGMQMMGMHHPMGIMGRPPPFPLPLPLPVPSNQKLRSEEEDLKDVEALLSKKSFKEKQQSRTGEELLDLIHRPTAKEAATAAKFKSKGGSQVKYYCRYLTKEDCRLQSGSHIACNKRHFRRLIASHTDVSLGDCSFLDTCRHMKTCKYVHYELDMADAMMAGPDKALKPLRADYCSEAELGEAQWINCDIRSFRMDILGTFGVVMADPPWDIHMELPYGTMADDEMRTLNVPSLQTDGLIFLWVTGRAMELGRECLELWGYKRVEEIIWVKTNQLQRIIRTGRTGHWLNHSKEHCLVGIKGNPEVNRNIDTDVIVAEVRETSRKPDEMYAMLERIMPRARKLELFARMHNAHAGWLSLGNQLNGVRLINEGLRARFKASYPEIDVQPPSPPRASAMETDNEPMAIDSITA

B1: MTB (METLL14) (protein, UniProt Q94AI4 1-775)
chain: MKKKQEESSLEKLSTWYQDGEQDGGDRSEKRRMSLKASDFESSSRSGGSKSKEDNKSVVDVEHQDRDSKRERDGRERTHGSSSDSSKRKRWDEAGGLVNDGDHKSSKLSDSRHDSGGERVSVSNEHGESRRDLKSDRSLKTSSRDEKSKSRGVKDDDRGSPLKKTSGKDGSEVVREVGRSNRSKTPDADYEKEKYSRKDERSRGRDDGWSDRDRDQEGLKDNWKRRHSSSGDKDQKDGDLLYDRGREREFPRQGRERSEGERSHGRLGGRKDGNRGEAVKALSSGGVSNENYDVIEIQTKPHDYVRGESGPNFARMTESGQQPPKKPSNNEEEWAHNQEGRQRSETFGFGSYGEDSRDEAGEASSDYSGAKARNQRGSTPGRTNFVQTPNRGYQTPQGTRGNRPLRGGKGRPAGGRENQQGAIPMPIMGSPFANLGMPPPSPIHSLTPGMSPIPGTSVTPVFMPPFAPTLIWPGARGVDGNMLPVPPVLSPLPPGPSGPRFPSIGTPPNPNMFFTPPGSDRGGPPNFPGSNISGQMGRGMPSDKTSGGWVPPRGGGPPGKAPSRGEQNDYSQNFVDTGMRPQNFIRELELTNVEDYPKLRELIQKKDEIVSNSASAPMYLKGDLHEVELSPELFGTKFDVILVDPPWEEYVHRAPGVSDSMEYWTFEDIINLKIEAIADTPSFLFLWVGDGVGLEQGRQCLKKWGFRRCEDICWVKTNKSNAAPTLRHDSRTVFQRSKEHCLMGIKGTVRRSTDGHIIHANIDTDVIIAEEPPYG
B2: FIP37 (WTAP) (protein, UniProt Q9ZSZ8 1-330)
chain: MEFSSQDDDFGGDDSAANATRASGNRRSFGDLEDDEDDIFGSTTVAPGVRTGMILSLRGSLKNCKDDLASCQNELESAKTEIQKWKSAFQNESFVPAGKSPEPRFLIDYIQNLKSSEKSLKEQLEIAKRKEASCIVQYAKREQEMAELKSAVRDLKSQLKPASMQARRLLLDPAIHEEFSRLKNLVEEKDKKIKELQDNIAAVTFTPQSKNGKMLMAKCRTLQEENEEIGHQAAEGKIHELAIKLAMQKSQNAELRSQFEGLYKHMEELTNDVERSNETVIILQEKLEEKEKEIERVKKGLEIVSELVGDKKDEVDEIDEDAKEEIAGGE

Biological target: T1, FCA (Arabidopsis) (UniProt O04425)
T1 sequence: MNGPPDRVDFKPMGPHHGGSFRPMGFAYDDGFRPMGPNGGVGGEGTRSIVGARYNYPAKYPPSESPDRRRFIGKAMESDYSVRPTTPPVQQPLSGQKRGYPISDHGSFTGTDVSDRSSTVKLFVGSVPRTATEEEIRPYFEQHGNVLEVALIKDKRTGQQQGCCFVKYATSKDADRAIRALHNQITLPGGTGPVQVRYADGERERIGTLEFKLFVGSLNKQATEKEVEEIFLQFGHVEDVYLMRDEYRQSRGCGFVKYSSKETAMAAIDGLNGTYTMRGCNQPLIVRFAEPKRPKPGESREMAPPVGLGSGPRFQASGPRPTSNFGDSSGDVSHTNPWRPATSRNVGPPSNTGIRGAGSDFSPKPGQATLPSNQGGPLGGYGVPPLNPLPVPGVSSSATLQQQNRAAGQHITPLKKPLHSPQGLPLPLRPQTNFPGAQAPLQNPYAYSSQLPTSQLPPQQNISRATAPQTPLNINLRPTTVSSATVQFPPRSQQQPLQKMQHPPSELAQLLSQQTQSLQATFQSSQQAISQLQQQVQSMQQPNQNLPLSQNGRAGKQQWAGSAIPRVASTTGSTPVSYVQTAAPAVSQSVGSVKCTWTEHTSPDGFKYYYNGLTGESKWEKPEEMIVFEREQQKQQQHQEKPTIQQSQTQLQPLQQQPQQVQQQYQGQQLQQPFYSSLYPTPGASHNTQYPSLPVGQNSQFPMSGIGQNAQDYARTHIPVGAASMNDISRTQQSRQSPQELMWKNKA
Assay: co-IP; factors co-immunoprecipitated with FCA after formaldehyde cross-linking (procedure of ref. 19); hits listed in Supplementary Table 1

binding, binds:
MTA (homolog of human METTL3) (from UniProt O82486 1-685)
B1
B2
